Laboratory results: PubChem BioAssay AID1259425 (University of Nebraska Medical Center, 2018)

- Purpose: 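Compare each knockdown with KSR1 silencing using changes in marker transcripts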 (primary screen)
- Cells: HCT116 human colon cancer cells
- Reagents: siRNA pool against human genes, 50 nM siRNA
- Measured: 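After 50 nM siRNA pool, branched-DNA assay measures six marker transcripts per well, minus blank, normalised to the geometric mean of two housekeeping transcripts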
- Reading the numbers: BNIP3L mRNA: higher = more BNIP3L transcript after knockdown; NDRG1 mRNA: higher = more NDRG1 transcript after knockdown; BNIP3 mRNA: higher = more BNIP3 transcript after knockdown; ALDOC mRNA: higher = more ALDOC transcript after knockdown; ACSL5 mRNA: higher = more ACSL5 transcript after knockdown
In all, the deposit lists about 14,000 reagents; this is a part drawn at random. Reagent sequences are not shown. Not stated in the record: the time to read-out.

| gene symbol | BNIP3L mRNA, set 1 | NDRG1 mRNA, set 1 | BNIP3 mRNA, set 1 | ALDOC mRNA, set 1 | ACSL5 mRNA, set 1 |
| --- | --- | --- | --- | --- | --- |
| GAREM1 | 0.133 | 0.651 | 0.253 | 0.0716 | 0.142 |
| TAS1R2 | 0.202 | 0.263 | 0.391 | 0.0227 | 0.0756 |
| GDAP2 | 0.128 | 0.23 | 0.352 | 0.0358 | 0.258 |
| EIF4H | 0.0934 | 0.0885 | 0.336 | 0.0366 | 0.177 |
| MT-CO2 | 0.0866 | 0.116 | 0.283 | 0.0187 | 0.173 |
| CNGA1 | 0.216 | 0.0904 | 0.378 | 0.0561 | 0.139 |
| CDH6 | 0.107 | 0.0898 | 0.324 | 0.0146 | 0.25 |
| PMP22 | 0.0897 | 0.23 | 0.394 | 0.0473 | 0.0954 |
| ZNF275 | 0.0842 | 0.11 | 0.241 | 0.0185 | 0.139 |
| SULF2 | 0.163 | 0.117 | 0.25 | 0.05 | 0.21 |
| RAB25 | 0.105 | 0.146 | 0.224 | 0.0287 | 0.11 |
| EXTL3 | 0.102 | 0.109 | 0.237 | 0.00766 | 0.193 |
| ATP5MK | 0.156 | 0.394 | 0.329 | 0.0667 | 0.0847 |
| CPEB1 | 0.209 | 0.085 | 0.176 | 0.0324 | 0.236 |
| DUT | 0.111 | 0.235 | 0.247 | 0.0222 | 0.114 |
| CCR8 | 0.116 | 0.108 | 0.198 | 0.0509 | 0.114 |
| MECR | 0.0478 | 0.234 | 0.235 | 0.0362 | 0.115 |
| OSBPL2 | 0.14 | 0.0637 | 0.255 | 0.0297 | 0.128 |
| SIGLEC11 | 0.108 | 0.126 | 0.293 | 0.00876 | 0.359 |
| HAS2 | 0.111 | 0.0684 | 0.292 | 0.0164 | 0.0717 |
| TMPRSS13 | 0.273 | 0.259 | 0.266 | 0.0547 | 0.367 |
| CCNT1 | 0.0592 | 0.117 | 0.218 | 0.0174 | 0.25 |
| VPS35L | 0.0868 | 0.24 | 0.453 | 0.054 | 0.214 |
| CLTB | 0.178 | 0.00763 | 0.263 | 0.122 | 0.132 |
| PAX9 | 0.106 | 0.127 | 0.352 | 0.0108 | 0.234 |
| TEAD1 | 0.0768 | 0.103 | 0.241 | 0.0215 | 0.192 |
| ZFAT | 0.103 | 0.213 | 0.323 | 0.0264 | 0.172 |
| VPS13C | 0.0789 | 0.0785 | 0.242 | 0.0114 | 0.167 |
| RNF34 | 0.103 | 0.297 | 0.336 | 0.0487 | 0.192 |
| SERP1 | 0.191 | 0.236 | 0.537 | 0.0183 | 0.0888 |
| KLRA1P | 0.0962 | 0.0603 | 0.268 | 0.0259 | 0.0844 |
| FUT5 | 0.0794 | 0.146 | 0.26 | 0.0143 | 0.165 |
| SDC3 | 0.141 | 0.275 | 0.252 | 0.0543 | 0.147 |
| PLA2G2D | 0.112 | 0.179 | 0.154 | 0.0224 | 0.0619 |
| FGFR2 | 0.11 | 0.402 | 0.407 | 0.0193 | 0.448 |
| KLF14 | 0.164 | 0.446 | 0.297 | 0.0175 | 0.348 |
| CDH10 | 0.0895 | 0.119 | 0.342 | 0.0101 | 0.294 |
| GAR1 | 0.138 | 0.151 | 0.291 | 0.0172 | 0.148 |
| LOXL4 | 0.14 | 0.112 | 0.298 | 0.0863 | 0.165 |
| FOLR1 | 0.303 | 0.696 | 0.622 | 0.0971 | 0.258 |
| FDXR | 0.0474 | 0.151 | 0.216 | 0.00919 | 0.0993 |
| LZTS3 | 0.157 | 0.151 | 0.24 | 0.0339 | 0.204 |
| EIF3K | 0.0447 | 0.316 | 0.437 | 0.0327 | 0.184 |
| FMNL1 | 0.1 | 0.606 | 0.255 | 0.0634 | 0.117 |
| CGA | 0.128 | 0.235 | 0.288 | 0.119 | 0.355 |
| LRIT1 | 0.0528 | 0.461 | 0.494 | 0.0644 | 0.186 |
| AADAT | 0.0456 | 0.302 | 0.315 | 0.0521 | 0.174 |
| MMD | 0.0303 | 0.24 | 0.362 | 0.0195 | 0.164 |
| SLC22A15 | 0.122 | 0.362 | 0.404 | 0.0184 | 0.284 |
| BICD2 | 0.114 | 0.409 | 0.265 | 0.0321 | 0.204 |
